Here are results for four molecules from publication PMC12456220.

Residue numbers refer to the chain shown, from its start. Numbers in names are those of the source. No constants are given. Whether binding was seen depends on the method and setting. Binding seen in cells or lysates may run through a third protein. For some of these results: Binding calls can cover weak binding; strength is not graded here. Where a sequence is shown, tags or fusion partners need not be part of it.

In test [1] the target is T1, Flag-MAVS-B (porcine MAVS 183-524aa) (porcine) (UniProt A0ZVR1).
T1 sequence: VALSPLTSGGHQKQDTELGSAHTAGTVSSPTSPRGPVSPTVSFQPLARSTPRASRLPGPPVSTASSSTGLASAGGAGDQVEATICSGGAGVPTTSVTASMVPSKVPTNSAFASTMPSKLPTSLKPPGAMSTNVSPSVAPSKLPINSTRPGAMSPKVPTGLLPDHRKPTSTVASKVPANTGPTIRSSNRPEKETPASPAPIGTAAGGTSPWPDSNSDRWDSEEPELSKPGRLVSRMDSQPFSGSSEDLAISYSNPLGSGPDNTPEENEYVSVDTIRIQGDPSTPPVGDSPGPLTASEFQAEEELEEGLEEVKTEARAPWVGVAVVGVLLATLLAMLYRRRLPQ
The experiment in a line: co-IP.

The target of test [2] is S-Flag-MAVS (porcine mitochondrial antiviral signaling protein, full length) (porcine) (UniProt A0ZVR1). The experiment in a line: co-IP.

As for Flag-IKK-ε (enzyme), the binding result in test [1] is reported as “no binding”. Same read-out and setting: the same measure for Myc-TBK1 (enzyme): “no binding”.

B1: S-HA-Caspase-1 (porcine Caspase-1) (enzyme, UniProt Q9N2I1 1-404)
chain: MADKVLKEKRRLFVRSVAMGTINGLLDELLETRVLNQEEVEIVRGENATVMDKARALIDSVIRKGPQACQICINHICGDDPHLAGVLELSTGSQSGKCLTVQESQAVVPPFPAPQTVQDNPVKPASSEPRGSLKLCPPDIAQRLWKEKSAEIYPIMGKSIRTRLALIICNTEFENLPRRDGADVDIRDMKILLEDLGYSVDVRENLTASDMAIELKAFAARPEHKSSDSTFLVLMSHGIQAGICGKKYSEEVPDVLEVNTVFQILNTLNCPSLKDKPKVIIIQACRGEKQGVVWIKDSVGPSGNSSLLAAEDFEYDAIKKAHIEKDFIAFCSSTPDNVSWRHPLLGSLFIIKLIKILQEHAWSCGLEEIFRKVRFSFELADGRAQMPTAERVTLTRSFYLFPGH
Regarding B1, the binding entry in test [2] is reported as “binds”.

B2: S-HA-Caspase-1-C285A (porcine Caspase-1, enzymatically inactive mutant) (enzyme, UniProt Q9N2I1 1-404)
chain: B1 chain with C285A
On to B2, for which the binding entry in test [2] is listed as “binds”.
